From patent US8003799B2, “Picolinic acid derivatives and their use as fungicides” (Bayer SAS, priority 2000, dated 2011)
Some entries share one result that the patent states for a list of compounds.

Tests used:
Alternaria brassicae = experiment: In vivo test on Alternaria brassicae (leaf spot of crucifers), radish plants; conditions: dose of 250 g/ha; radish plants (Pernot variety) sprayed 24 hours before contamination; grading 6 to 7 days after contamination vs control plants
Septoria nodorum = experiment: In vivo test on Septoria nodorum (septoria disease of wheat); conditions: dose of 250 g/ha; wheat plants (Scipion variety) sprayed 24 hours before contamination; grading 15 to 20 days after contamination vs control plants

Nc1ccnc(C(=O)Nc2ccc(Oc3ccc(C(F)(F)F)cc3)cc2)c1O [Compound 108, 4-amino-3-hydroxy-N-para-[4-(trifluoromethyl)phenoxy]phenylpicolinamide]
good (at least 50%) or total protection (Alternaria brassicae): at least 50%
good (at least 50%) or total protection (Septoria nodorum): at least 50%
